Here are results for 2 molecules from paper PMC5348313.

Chains of the proteins cited; added tags and fusions are not shown.
UniProt P49736: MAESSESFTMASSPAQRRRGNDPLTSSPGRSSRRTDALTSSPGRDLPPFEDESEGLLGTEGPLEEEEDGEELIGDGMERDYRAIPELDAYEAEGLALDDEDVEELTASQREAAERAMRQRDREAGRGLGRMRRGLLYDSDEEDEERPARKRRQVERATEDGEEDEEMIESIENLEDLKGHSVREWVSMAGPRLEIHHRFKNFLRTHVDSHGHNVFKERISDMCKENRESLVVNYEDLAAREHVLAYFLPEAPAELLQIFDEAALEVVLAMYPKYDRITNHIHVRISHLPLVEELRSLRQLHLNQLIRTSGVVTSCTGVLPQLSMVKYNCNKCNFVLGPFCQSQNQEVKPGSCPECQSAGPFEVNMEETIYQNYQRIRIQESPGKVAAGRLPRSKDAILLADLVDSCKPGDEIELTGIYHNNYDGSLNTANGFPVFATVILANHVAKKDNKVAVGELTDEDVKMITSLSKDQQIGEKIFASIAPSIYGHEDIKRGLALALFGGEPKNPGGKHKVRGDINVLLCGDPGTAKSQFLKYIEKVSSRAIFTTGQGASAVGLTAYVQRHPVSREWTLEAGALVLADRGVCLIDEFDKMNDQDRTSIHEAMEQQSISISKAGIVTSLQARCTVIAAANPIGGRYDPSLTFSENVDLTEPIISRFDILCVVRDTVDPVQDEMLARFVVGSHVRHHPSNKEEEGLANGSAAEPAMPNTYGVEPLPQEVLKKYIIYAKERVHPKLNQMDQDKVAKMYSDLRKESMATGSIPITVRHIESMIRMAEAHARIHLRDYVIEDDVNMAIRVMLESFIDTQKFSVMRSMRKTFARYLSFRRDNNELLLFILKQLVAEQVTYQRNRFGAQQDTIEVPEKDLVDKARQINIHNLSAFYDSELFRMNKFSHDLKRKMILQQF
UniProt P08151: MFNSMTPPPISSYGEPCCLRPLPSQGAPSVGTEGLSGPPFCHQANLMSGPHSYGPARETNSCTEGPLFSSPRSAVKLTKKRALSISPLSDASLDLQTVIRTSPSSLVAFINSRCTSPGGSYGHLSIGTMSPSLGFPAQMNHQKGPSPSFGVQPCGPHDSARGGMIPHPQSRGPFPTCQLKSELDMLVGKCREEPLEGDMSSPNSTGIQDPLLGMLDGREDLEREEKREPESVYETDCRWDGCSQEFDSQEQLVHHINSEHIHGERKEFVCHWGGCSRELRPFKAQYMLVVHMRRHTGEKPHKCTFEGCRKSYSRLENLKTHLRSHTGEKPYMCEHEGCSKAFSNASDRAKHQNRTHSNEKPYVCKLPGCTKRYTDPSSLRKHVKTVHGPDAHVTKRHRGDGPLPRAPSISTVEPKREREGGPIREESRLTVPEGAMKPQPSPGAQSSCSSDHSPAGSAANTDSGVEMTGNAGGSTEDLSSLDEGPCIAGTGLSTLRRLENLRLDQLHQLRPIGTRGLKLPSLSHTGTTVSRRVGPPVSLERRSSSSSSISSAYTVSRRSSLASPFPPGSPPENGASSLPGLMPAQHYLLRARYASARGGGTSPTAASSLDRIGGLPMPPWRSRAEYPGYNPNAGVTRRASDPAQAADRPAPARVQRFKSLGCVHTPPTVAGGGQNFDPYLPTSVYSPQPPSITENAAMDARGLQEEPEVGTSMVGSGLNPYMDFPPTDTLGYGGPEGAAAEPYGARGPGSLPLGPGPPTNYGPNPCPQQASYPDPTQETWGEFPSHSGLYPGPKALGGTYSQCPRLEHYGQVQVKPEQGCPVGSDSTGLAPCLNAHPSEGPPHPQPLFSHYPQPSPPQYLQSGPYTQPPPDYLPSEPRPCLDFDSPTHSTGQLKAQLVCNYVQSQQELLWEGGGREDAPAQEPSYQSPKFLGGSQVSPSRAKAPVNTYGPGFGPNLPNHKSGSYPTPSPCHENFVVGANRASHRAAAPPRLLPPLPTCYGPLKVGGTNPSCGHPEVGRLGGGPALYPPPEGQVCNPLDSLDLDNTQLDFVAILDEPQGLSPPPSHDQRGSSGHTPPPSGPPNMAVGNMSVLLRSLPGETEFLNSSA

Holding throughout (assay): co-IP; endogenous proteins in HT29 cell lysate (Pierce lysis buffer with 1% NP-40); antibody or IgG control overnight at 4°C, Dynabeads Protein G 2 hr at 4°C, washed with TBST, Western blot; cells treated with DMSO (0.2%) or GANT61 (20 μM) for 4 hr
In general terms: Immunoblotting shows a protein as a band on a membrane.

In assay [1] the target is MCM2 (human (endogenous in HT29)) (UniProt P49736).
In assay [2] the target is T1, ORC4 (human (endogenous in HT29)) (UniProt O43929).
T1 sequence: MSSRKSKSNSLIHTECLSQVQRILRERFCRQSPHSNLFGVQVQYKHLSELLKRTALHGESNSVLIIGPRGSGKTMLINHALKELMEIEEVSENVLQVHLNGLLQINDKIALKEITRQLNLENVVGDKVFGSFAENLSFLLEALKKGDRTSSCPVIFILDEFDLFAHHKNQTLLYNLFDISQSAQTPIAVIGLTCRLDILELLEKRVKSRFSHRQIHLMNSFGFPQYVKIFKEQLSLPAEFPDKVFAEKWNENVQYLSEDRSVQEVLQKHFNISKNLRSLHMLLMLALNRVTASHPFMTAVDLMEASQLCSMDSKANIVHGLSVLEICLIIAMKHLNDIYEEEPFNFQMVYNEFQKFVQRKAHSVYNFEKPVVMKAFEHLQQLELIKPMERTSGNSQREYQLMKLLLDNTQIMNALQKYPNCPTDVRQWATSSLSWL

Assay [3] concerns the target GLI1 (human (endogenous in HT29)) (UniProt P08151).

Results are given in words; binding and its absence hold for the method and conditions named. In cells and extracts the contact can be indirect. Some results given as binding are weak or reduced against the parent protein; the word gives no strength.

On to GLI1 (from UniProt P08151 1-1106), for which the binding entry in assay [1] and in assay [2] was “binds” in each case.

B1: CDT1 (protein, UniProt Q9H211 1-546)
chain: MEQRRVTDFFARRRPGPPRIAPPKLACRTPSPARPALRAPASATSGSRKRARPPAAPGRDQARPPARRRLRLSVDEVSSPSTPEAPDIPACPSPGQKIKKSTPAAGQPPHLTSAQDQDTISELASCLQRARELGARVRALKASAQDAGESCTPEAEGRPEEPCGEKAPAYQRFHALAQPGLPGLVLPYKYQVLAEMFRSMDTIVGMLHNRSETPTFAKVQRGVQDMMRRRFEECNVGQIKTVYPASYRFRQERSVPTFKDGTRRSDYQLTIEPLLEQEADGAAPQLTASRLLQRRQIFSQKLVEHVKEHHKAFLASLSPAMVVPEDQLTRWHPRFNVDEVPDIEPAALPQPPATEKLTTAQEVLARARNLISPRMEKALSQLALRSAAPSSPGSPRPALPATPPATPPAASPSALKGVSQDLLERIRAKEAQKQLAQMTRCPEQEQRLQRLERLPELARVLRSVFVSERKPALSMEVACARMVGSCCTIMSPGEMEKHLLLLSELLPDWLSLHRIRTDTYVKLDKAADLAHITARLAHQTRAEEGL
Regarding B1, the binding result in assay [3] is “binds”.
